This note sets out measurements from PubChem BioAssay AID2685 (National Center for Advancing Translational Sciences (NCATS), 2010).

The nature of the test: qHTS Assay for Lipid Storage Modulators in Drosophila S3 Cells.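 As to cell number change: cells counted by Cell Tracker Red CMTPX staining in the red channel.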 The settings on record: BODIPY lipid droplet fluorescence, 18-24 h; for cell number change: measured here: cell count max response, cells fed with added oleic acid. In short, it runs like this:
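Drosophila S3 cells got compounds at several concentrations plus oleic acid (400 uM solution). Laser-scanning cytometry with 488 nm excitation read lipid droplets at 500-530 nm and cells at 575-640 nm. Percent activity was relative to 20 uM Triacsin C.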

The mark [1] stands for this setting: measured here: cell number channel AC50, cells fed with added oleic acid.
Setting [2] is: measured here: lipid fluorescence (Fed channel) AC50, cells fed with added oleic acid.

A word on the AC50: it is the midpoint of the concentration-response curve, whichever way the signal moves. Read a low AC50 as greater potency.

The structures appear in SMILES notation. The list shows a part of the results. Further columns of the screen follow, without active or inactive calls. Most of these compounds were active or inconclusive in the main read-out, so they are no random draw. Potencies come from curve fits of mixed quality, noted in brackets.

`Nc1c(S(=O)(=O)c2ccccc2)c2nc3ccccc3nc2n1/N=C/c1ccco1`: the cell number change is -39.5%. The half-maximal activity concentration (AC50) under setting [1] is 16.4 µM [falling, single point]. In addition, the half-maximal activity concentration (AC50) under setting [2] was 29.1 µM [falling, single point].

On to `Cc1ccc(CNC(=O)COC(=O)COc2ccc(C#N)cc2)cc1`, for which the cell number change is -15.4%. In addition, under setting [1], the AC50 was 3.66 µM [falling, partial curve]. Also, under setting [2], the AC50 was 6.51 µM [falling, single point].

`O=C(Nc1ccccc1N1CCOCC1)c1cc(Cl)c2c(c1)OCO2`: the cell number change worked out at 1.38%. For the same compound, the AC50 under setting [2] is 0.0517 µM [rising, full curve, poor fit].

Take `O=C1COc2ccc(C(=O)CSc3nnc(Cc4cccs4)n3-c3ccccc3)cc2N1`: under setting [1], the AC50 was 0.461 µM [rising, partial curve, poor fit].

On to `Cc1ccc2oc(=O)c3cnn(CC(=O)N4CCCCC4C)c3c2c1` (stereo not drawn), for which the concentration at half-maximal activity (AC50) is, setting by setting: under setting [1], 0.092 µM [rising, full curve, poor fit]; under setting [2], 0.092 µM [rising, full curve, poor fit].

Regarding `CCN(CC(=O)Nc1cc(Cl)ccc1C)C(=O)CCOc1ccc(C)cc1`, the cell number change came to 34.6%. For the same compound, under setting [1], the AC50 was 5.8 µM [rising, single point]. The AC50 under setting [2] is 0.146 µM [rising, partial curve, poor fit].

As for `O=C(CN1CCN(S(=O)(=O)c2cccc(F)c2)CC1)NCC1(N2CCOCC2)CCCCC1`, the cell number change was found to be 33.9%. Moreover, under setting [2], the half-maximal activity concentration (AC50) was 29.1 µM [rising, single point].

In the case of `Cc1cccc(C)c1NC(=O)c1ccccc1C(=O)O`, the cell number change is -0.586%.

With `COc1ccc(C(=O)N2CCCc3ccccc32)cc1OC`, the cell number change is 24.5%. The half-maximal activity concentration (AC50) under setting [2] is 3.26 µM [rising, partial curve].

Turning to `CCCN1C(=O)/C(=C/c2ccc(C)o2)SC1=Nc1ccc(OC)cc1`, the cell number change amounted to 109%. The concentration at half-maximal activity (AC50) under setting [1] was 6.51 µM [rising, partial curve].

Regarding `O=C(CCl)N1CCN(S(=O)(=O)Cc2ccccc2)CC1`, the cell number change is -9.1%.

`Nc1nc(Nc2ccccc2)nc(NCc2ccco2)c1[N+](=O)[O-]`: the cell number change was 45.5%. Further, the AC50 under setting [1] was 11.6 µM [rising, partial curve, poor fit]. Besides, the half-maximal activity concentration (AC50) under setting [2] is 16.4 µM [rising, partial curve].

Regarding `Cn1cc(C(=O)C(=O)N2CCCC2)c2ccccc21`, the cell number change worked out at 25.6%.

As to `Cc1cc(OCCn2ccnc2)ccc1C(C)C`, the cell number change is -8.14%. Further, under setting [2], the AC50 is 5.17 µM [falling, single point].

For `CCn1c(O)c(C=NC2CCCC(C)C2C)sc1=S` (stereo not drawn), the cell number change was found to be 19.6%. Besides, the concentration at half-maximal activity (AC50) under setting [1] was 0.206 µM [rising, full curve, poor fit]. The AC50 under setting [2] is 2.59 µM [rising, partial curve, poor fit].

On to `Cc1cccc(NC(=O)COC(=O)COc2ccc3c(c2)CCC3)c1`, for which the cell number change is -1.07%. Moreover, the AC50 under setting [1] was 6.51 µM [falling, single point]. Besides, under setting [2], the AC50 is 0.00461 µM [falling, full curve, poor fit].

As for `COC(=O)CCCCC1SCC(NC(=O)OC)C1NC(=O)OC` (stereo not drawn), the cell number change was determined as 8.85%.

`Cc1ccc2c(c1)c1nc3ccccc3nc1n2C`: the cell number change turned out to be 36.5%. Also, under setting [1], the AC50 is 11.6 µM [rising, single point]. Besides, the AC50 under setting [2] was 20.6 µM [falling, single point].

As for `COCCN(C(=O)COC(=O)C1(c2ccccc2)CC1)c1c(N)n(CC(C)C)c(=O)[nH]c1=O`, the cell number change was -43.6%. Besides, the AC50 under setting [1] was 25.9 µM [falling, single point]. For the same compound, the concentration at half-maximal activity (AC50) under setting [2] was 29.1 µM [falling, single point].

As to `Cc1cccc(NC(=O)Nc2nnc(-c3ccccc3)o2)c1`, the concentration at half-maximal activity (AC50) under setting [1] is 6.51 µM [rising, single point] and the half-maximal activity concentration (AC50) under setting [2] is 3.66 µM [rising, partial curve].

For `Cc1csc(NC(=O)CCCNC(=O)c2ccc(Cl)cc2)n1`, the cell number change was -34.2%. The concentration at half-maximal activity (AC50) under setting [1] is 23.1 µM [falling, partial curve]. Under setting [2], the half-maximal activity concentration (AC50) was 0.82 µM [falling, full curve, poor fit].

For the compound `CC(C)C(=O)Nc1ncc(C(F)(F)F)cc1Cl`, the cell number change was -65.5%. In addition, under setting [1], the half-maximal activity concentration (AC50) is 29.1 µM [falling, single point].

For `CC1CCCCN1c1nnc(NC(=O)c2cc(-c3ccc(Br)cc3)on2)s1` (stereo not drawn), the cell number change was -24.3%. The AC50 under setting [2] was 0.58 µM [rising, single point].

Consider `CC1CCCC(C)N1C(=O)CSc1nnc(NC(=O)Cc2cccs2)s1` (stereo not drawn), for which the cell number change was -9.67%. Further, under setting [2], the concentration at half-maximal activity (AC50) is 0.517 µM [falling, full curve].

Regarding `CCCN(CCC)CC(O)CN(c1ccccc1)S(=O)(=O)c1ccc(C)cc1` (stereo not drawn), the cell number change is -113%. Also, the AC50 under setting [1] was 16.4 µM [falling, single point]. Under setting [2], the concentration at half-maximal activity (AC50) is 0.0291 µM [rising, full curve, poor fit].

On to `O=c1nc(N2CCCCC2)nc(Nc2ccccc2)[nH]1`, for which the cell number change came out at 80.3%. Moreover, under setting [1], the AC50 was 6.51 µM [falling, single point]. The AC50 under setting [2] is 6.51 µM [falling, single point].

As to `COc1ccc(Cn2ccnc2SCC(=O)Nc2nnc(C)s2)cc1`, the cell number change was found to be 49.4%. Further, the AC50 under setting [1] is 35.5 µM [rising, single point]. The AC50 under setting [2] was 35.5 µM [rising, single point].

As to `Nc1nn(-c2ccccc2)c(N)c1N=Nc1ccc2c(c1)OCO2`, the cell number change was determined as 11.2%. Further, under setting [1], the AC50 is 0.13 µM [rising, partial curve, poor fit]. For the same compound, under setting [2], the AC50 was 0.00651 µM [rising, full curve, poor fit].

Consider `Cc1ccc(NC(=O)COc2ccccc2)cc1S(=O)(=O)N1CCCCCC1`, for which the cell number change amounted to 15.6%. In addition, the AC50 under setting [2] was 1.64 µM [rising, partial curve].

For the compound `CCCNC(=O)COc1ccc(-c2nn(C)c(=O)c3ccccc23)cc1`, the cell number change is -1.04%.

As for `COc1cc(/C=C/C(=O)OCC(=O)NCc2ccco2)ccc1OC(F)F`, the cell number change came out at 5.41%.

As to `O=C(NCC1COCCO1)C1CCN(S(=O)(=O)c2ccccc2)CC1` (stereo not drawn), the cell number change was -18.5%. The AC50 under setting [2] is 6.51 µM [falling, single point].

Turning to `COc1ccc(CN2C(=O)c3ccccc3C2=O)cc1C(=O)N(C)CC(=O)Nc1ccc(F)cc1`, the cell number change turned out to be 38.7%. In addition, under setting [1], the AC50 is 7.31 µM [rising, single point]. Besides, the half-maximal activity concentration (AC50) under setting [2] was 0.146 µM [rising, partial curve, poor fit].

In the case of `CCc1ccc2c(CN3CCc4cc(OC)c(OC)cc4C3)cc(=O)oc2c1`, the cell number change was found to be 57%. For the same compound, under setting [1], the AC50 was 32.6 µM [rising, single point]. The AC50 under setting [2] was 14.6 µM [rising, single point].

Consider `CCS(=O)(=O)N1Cc2ccccc2CC1C(=O)Nc1ccccc1OC` (stereo not drawn), for which the cell number change is 24.4%. The AC50 under setting [2] was 25.9 µM [rising, single point].
